Results are given in words; binding and its absence hold for the method and conditions named. Tags and fused reporters may be left off the sequences shown.
Tests used:
[1] = target: (MBP-)Rps0 (S. cerevisiae), P32905; test: condition: 5 µM untagged protein, 3 µM MBP-tagged protein; pull-down; 3 µM MBP-tagged bait and 5 µM untagged prey in 50 mM HEPES pH 7.5, 150 mM KCl; 10 min at room temperature, 1 h at 4°C with amylose resin; washed, eluted with 20 mM maltose; SDS-PAGE, Coomassie; both purified; conditions: remark: other sources report otherwise
[2] = target: (MBP-)Rps29 (S. cerevisiae); test: as above

binding [1]	binding [2]	Binder
no binding	–	Tsr1 (untagged), Q07381 1-788 (protein) MAGHSHRSSLKNGHKSYKSKHASKGALKRLYKGKVEKEPVGTGKPDKQVSKLQRKNKAKQLRAQRILDSIENRKLFEGKNGAAKIITIVPLVNDLDPLDILYKLLKCADDEGIMVQEVDSKRIFNVHIKKFKSNLKIIIPDMTNFLNILDCAKVADFVVFGLSGVQEVDEEFGEQIIRALELQGIASYIGVISNLSAVHEKEKFQLDVKQSLESYFKHFFPSEERVYNLEKNSDALNVLRTLCQRLPRSINWRDNRGYVVADFVDFVETSPDSGDLVIEGTVRGIGFNANRLVHIPDFGDFQLNKIEKISESSQKRKIIKEKATDSLSLELDLQTVFESNMNRDTLDEYAPEGTEDWSDYDEDFEYDGLTTARYDDHGFLPGREQTSKKAAVPKGTSDYQAKWYLDDVIDANEEEEAEQTNGKDETMMEIDDEMMVEQDNEEVAGDEEYDIEDNEGFEELSPEEEERQLREFRDMEKEDREFPDEIELEPSESAIERLKRYRGLKNLYNCDWQVDEKDPSSPAEWKRLLRIGNYKNTKNRIIKETKNEAQAIAGDRIRMFIRFPKFLLEKIQDPKQLLFAVYGLLLHEHKNAVVNFSLQRWEQYDKPVPSQEPIVVQYGVRRYTIQPLFSQGSNSPNNVHKYERFLHPDTVSVATCIAPVDFTQSPAIFFKPSPTDAKNIELIGHGTFLNADHSRILAKRAILTGHPFRFHKTVVTVRYMFFRPEDVEWFKSIPLFTKSGRSGFIKESLGTHGYFKATFDGKLSAQDVVAMSLYKRMWPMPSLPWNGM
–	no binding	Tsr1 (untagged) (protein, UniProt Q07381 1-788) MAGHSHRSSLKNGHKSYKSKHASKGALKRLYKGKVEKEPVGTGKPDKQVSKLQRKNKAKQLRAQRILDSIENRKLFEGKNGAAKIITIVPLVNDLDPLDILYKLLKCADDEGIMVQEVDSKRIFNVHIKKFKSNLKIIIPDMTNFLNILDCAKVADFVVFGLSGVQEVDEEFGEQIIRALELQGIASYIGVISNLSAVHEKEKFQLDVKQSLESYFKHFFPSEERVYNLEKNSDALNVLRTLCQRLPRSINWRDNRGYVVADFVDFVETSPDSGDLVIEGTVRGIGFNANRLVHIPDFGDFQLNKIEKISESSQKRKIIKEKATDSLSLELDLQTVFESNMNRDTLDEYAPEGTEDWSDYDEDFEYDGLTTARYDDHGFLPGREQTSKKAAVPKGTSDYQAKWYLDDVIDANEEEEAEQTNGKDETMMEIDDEMMVEQDNEEVAGDEEYDIEDNEGFEELSPEEEERQLREFRDMEKEDREFPDEIELEPSESAIERLKRYRGLKNLYNCDWQVDEKDPSSPAEWKRLLRIGNYKNTKNRIIKETKNEAQAIAGDRIRMFIRFPKFLLEKIQDPKQLLFAVYGLLLHEHKNAVVNFSLQRWEQYDKPVPSQEPIVVQYGVRRYTIQPLFSQGSNSPNNVHKYERFLHPDTVSVATCIAPVDFTQSPAIFFKPSPTDAKNIELIGHGTFLNADHSRILAKRAILTGHPFRFHKTVVTVRYMFFRPEDVEWFKSIPLFTKSGRSGFIKESLGTHGYFKATFDGKLSAQDVVAMSLYKRMWPMPSLPWNGM

Source: publication PMC3024409
